The assay addresses T1, GST-tagged programmed cell death 4 protein (PDCD4) (human) (UniProt Q53EL6).
T1 sequence: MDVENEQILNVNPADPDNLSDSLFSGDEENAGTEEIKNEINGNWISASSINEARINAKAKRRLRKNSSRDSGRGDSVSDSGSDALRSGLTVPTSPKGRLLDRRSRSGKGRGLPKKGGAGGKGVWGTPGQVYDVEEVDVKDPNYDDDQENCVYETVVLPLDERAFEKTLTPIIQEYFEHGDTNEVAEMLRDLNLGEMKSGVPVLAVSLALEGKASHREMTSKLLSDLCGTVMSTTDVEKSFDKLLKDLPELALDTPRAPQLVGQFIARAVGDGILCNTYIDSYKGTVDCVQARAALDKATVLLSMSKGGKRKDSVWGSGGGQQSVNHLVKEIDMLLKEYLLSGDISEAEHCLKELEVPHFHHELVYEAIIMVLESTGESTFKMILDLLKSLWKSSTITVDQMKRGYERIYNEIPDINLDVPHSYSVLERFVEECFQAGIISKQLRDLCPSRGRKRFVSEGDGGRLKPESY
Put plainly: pull-down; GST-PDCD4 (40 pmol) co-incubated with PABP, eRF1 and eRF3a-GTP (40 pmol each), 20 μl, 1 h at 4 °C, 25 mM Tris-HCl pH 7.5, 10% glycerol, 100 mM KCl, 2.5 mM MgCl2, 2 mM DTT, 0.25 mM spermidine, 0.2 mM GTP; then held on glutathione-sepharose 4B, four washes, release by TEV protease, western blot; both purified. (In general: A western blot detects proteins with antibodies after separation by electrophoresis.)

Protein sequences, listed by entry. Tags and fused reporters are not part of them. Lines headed by an entry give the natural chain unless they say otherwise; changes in a name come on top.
UniProt P15170: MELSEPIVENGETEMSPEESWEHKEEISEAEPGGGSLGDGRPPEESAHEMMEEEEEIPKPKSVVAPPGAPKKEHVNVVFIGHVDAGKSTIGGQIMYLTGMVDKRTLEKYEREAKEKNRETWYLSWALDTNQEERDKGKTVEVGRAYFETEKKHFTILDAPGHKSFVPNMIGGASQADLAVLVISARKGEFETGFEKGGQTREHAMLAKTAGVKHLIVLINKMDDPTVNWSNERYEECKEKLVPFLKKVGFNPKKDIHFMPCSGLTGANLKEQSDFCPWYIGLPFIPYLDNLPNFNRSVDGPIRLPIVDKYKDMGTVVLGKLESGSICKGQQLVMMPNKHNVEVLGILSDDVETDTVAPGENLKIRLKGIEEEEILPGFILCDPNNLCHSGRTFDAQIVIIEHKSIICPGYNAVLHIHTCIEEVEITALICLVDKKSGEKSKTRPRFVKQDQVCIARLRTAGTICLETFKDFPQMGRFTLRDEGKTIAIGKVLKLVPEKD

From article PMC8551656, “Discovery of a novel role of tumor suppressor PDCD4 in stimulation of translation termination” (The Journal of Biological Chemistry, 2021) come the findings set out here.

Results are given in words; binding and its absence hold for the method and conditions named. Sequences can lack the tags named with a protein.

Turning to “eukaryotic release factor 3a (eRF3a) (from UniProt P15170)”, the binding entry is “no binding (tested: 40 pmol each in 20 μl)”.
